Laboratory results as given in PubChem BioAssay AID485314 (National Center for Advancing Translational Sciences (NCATS), 2010).
Hit rate of the full screen: of about 340,000 compounds, about 4,500 (1.3%) were called active. The shares of active, inactive and inconclusive entries below differ from those in the screen. The call rests on the fitted dose curve; in most records, active means well fitted inhibition curve with a large enough effect; inconclusive means small, poorly fitted or top-dose-only effect, or another doubt; inactive means no such curve, though single readings can be large or run the other way. Potencies beside an inconclusive call are fits to weak or partial responses and may not hold up.
On the % scale 0 is the no-effect control and ±100 the full control effect; potency means the concentration at half of the fitted maximal effect.

Each molecule was assayed against DNA polymerase beta (Homo sapiens) (UniProt P06746) (assay: qHTS Assay for Inhibitors of DNA Polymerase Beta). Details: Pol beta primer extension/strand displacement, fluorescence kinetic; activity change, negative = inhibition: at 114 µM (top of the series).
Summary of the method: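 Pol beta (10 nM) and compounds were preincubated 15 min at room temperature, then 50 nM substrate (final) started primer extension/strand displacement. Reads were taken at 0 and 10 min; concentration-response data were fitted to a four-parameter Hill equation.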
`O=c1c2ccccc2c(C=Nc2cccc(O)c2)c(O)n1-c1ccc2c(c1)OCO2` was tested, and the Potency was active: 39.8 µM. In the case of `O=C(CCCN1C(=O)/C(=C\c2ccco2)SC1=S)Nc1ccc(O)cc1C(=O)O`, the Potency is reported as inconclusive: 3.16 µM [inhibitor, single point]. With `OCC1OC(n2cnc3ccccc32)CC1O` (stereo not given) the activity change, negative = inhibition was inconclusive: -48.2% [inhibitor]. For `COc1cc(Nc2nc3c(S(=O)(=O)c4ccc(C)c(C)c4)nnn3c3ccsc23)cc(OC)c1`, the “activity change, negative = inhibition” value was inactive: 2.26%. `Cc1nn(C(=O)c2ccco2)c(C)c1Br` was tested, and the Potency was inconclusive: 0.282 µM [inhibitor, full curve]. In the case of `Cc1ccc(OCC(=O)c2cc(C)n(Cc3cccs3)c2C)c([N+](=O)[O-])n1`, the Potency is reported as inconclusive: 44.7 µM [inhibitor, partial curve]. With `CCN(CC)C(=O)CSc1n[nH]c(=S)n1N` the Potency was inconclusive: 89.1 µM [inhibitor, single point]. In the case of `Oc1ccc(NCc2ccccc2OCc2ccc(Cl)cc2)cc1`, the Potency is reported as inconclusive: 89.1 µM [inhibitor, single point]. In the case of `COc1ccc2nc(SCc3nc(N)nc(Nc4ccccc4)n3)[nH]c2c1`, the Potency is reported as inconclusive: 3.98 µM [inhibitor, full curve, poor fit]. In the case of `O=S(=O)(O)c1cccc(N=Nc2c(O)ccc3ccccc23)c1`, the activity change, negative = inhibition is reported as inconclusive: -57.4% [inhibitor]. For `Cn1cccc1CC(=O)NNC(=S)Nc1ccc(Cl)cc1Cl`, the Potency was inconclusive: 44.7 µM [inhibitor, partial curve]. `Cc1ccc(/C=N/NC(=O)c2nnn(-c3nonc3N)c2CSc2ccccc2)s1` was tested, and the Potency was inconclusive: 79.4 µM [inhibitor, single point]. In the case of `CC(C)c1nc2cc(C(=O)N(C)Cc3ccc(F)cc3)ccc2o1`, the “activity change, negative = inhibition” value is reported as inactive: 49%. In the case of `O=C(C1CCC1)N1CCc2cc(S(=O)(=O)Nc3ccc4c(c3)OCO4)ccc21`, the Potency is reported as inconclusive: 79.4 µM [inhibitor, single point]. With `CC(=O)c1cccc(NC(=O)CCn2c(=S)oc3ccccc32)c1` the Potency was inconclusive: 20 µM [inhibitor, full curve]. With `COC(=O)c1ccc(NCCC(=O)O)cc1` the Potency was inconclusive: 0.708 µM [inhibitor, full curve, poor fit]. `Cc1cc2c([nH]c3ccccc32)c2c1OC(C)(C)C=C2` was tested, and the Potency was inconclusive: 89.1 µM [inhibitor, single point]. `Cc1ccccc1-c1noc(-c2ccc(NCc3ccco3)c([N+](=O)[O-])c2)n1` was tested, and the “activity change, negative = inhibition” value was inactive: 8.56%. For `COC(=O)CSc1nn(-c2ccc(F)cc2)c(=S)s1`, the Potency was inconclusive: 0.126 µM [inhibitor, full curve, poor fit]. In the case of `CC(=O)C1=C(O)C(=O)N(CCC(=O)O)C1c1ccccc1[N+](=O)[O-]` (stereo not given), the Potency is reported as inconclusive: 1.12 µM [inhibitor, full curve, poor fit]. `CN(C)c1ccc(NC(=O)CSc2n[nH]c(-c3ccco3)n2)cc1` was tested, and the Potency was inconclusive: 89.1 µM [inhibitor, single point]. With `O=C(O)C1C2C=CC(CC2)C1C(=O)O` (stereo not given) the Potency was active: 17.8 µM. In the case of `O=C(c1cnn2cccnc12)N1CCN(Cc2ccc3c(c2)OCO3)CC1`, the Potency is reported as inconclusive: 70.8 µM [inhibitor, single point]. In the case of `CCOc1ccc(-n2c(SC)nc3c(c2=O)SCC3)cc1`, the Potency is reported as inconclusive: 1.12 µM [inhibitor, full curve]. With `O=C(O)CSCc1cn2cc(Cl)ccc2n1` the Potency was inconclusive: 3.55 µM [inhibitor, single point]. For `CCN(CC)S(=O)(=O)c1ccc(-c2nnc(SCC(=O)Nc3ccc4c(c3)OCO4)o2)cc1`, the Potency was inconclusive: 1 µM [inhibitor, full curve]. In the case of `Cc1nc(CNS(=O)(=O)c2cccc(F)c2)cs1`, the “activity change, negative = inhibition” value is reported as inactive: 34.5%. For `COc1cccc(CC(=O)Nc2cccc3ccccc23)c1`, the Potency was inconclusive: 89.1 µM [inhibitor, single point]. For `CC(C)CC(=O)N1CCN(C(=O)c2ccc(F)cc2)CC1`, the Potency was inconclusive: 3.55 µM [inhibitor, single point]. With `CC(=O)c1ccc(N2CCN(C(=O)Nc3ccc(F)cc3)CC2)cc1` the Potency was inconclusive: 89.1 µM [inhibitor, single point]. In the case of `COc1ccc(NC(=O)/C=C/c2ccc(Br)o2)cn1`, the Potency is reported as active: 11.2 µM. `COc1ccc(Cl)cc1NC(=O)c1c(NCc2cccnc2)sc2c1CCC(C)C2` (stereo not given) was tested, and the Potency was inconclusive: 89.1 µM [inhibitor, single point]. With `C/C(N)=C(/C#N)C(=O)COC(=O)c1cccc(C)c1O` the Potency was inconclusive: 89.1 µM [inhibitor, single point]. For `Fc1ccc(NC(=S)NCCc2ccccc2)c(F)c1F`, the Potency was inconclusive: 100 µM [inhibitor, partial curve]. In the case of `CCS(=O)(=O)c1ncc(N(Cc2ccco2)Cc2ccccc2F)c(C(=O)Nc2cccc(Cl)c2)n1`, the “activity change, negative = inhibition” value is reported as inactive: 0.839%. For `CC1CCN(C(=O)CSc2nnc(Cc3cccn3C)n2-c2ccc(F)cc2)CC1`, the Potency was inconclusive: 100 µM [inhibitor, single point]. `COc1ccc(N2CCN(C(=O)c3ccccc3NC(=O)c3ccccc3)CC2)cc1` was tested, and the Potency was inconclusive: 7.94 µM [inhibitor, full curve, poor fit]. With `CCOC(=O)c1ccc(CN(Cc2ccc(Br)cc2)S(=O)(=O)c2cccc(Cl)c2C)cc1` the “activity change, negative = inhibition” value was inactive: 2.07%. With `C/C(=C\c1ccco1)C1Nc2cccc3cccc(c23)N1` the Potency was inconclusive: 0.562 µM [inhibitor, full curve]. With `C(=C\c1ccco1)/c1nc2ccccc2[nH]1` the “activity change, negative = inhibition” value was inactive: -17.5%. With `Cc1ccc(NC(=O)Cn2nc(Cc3ccncc3)c3ccccc3c2=O)c(Cl)c1` the Potency was inconclusive: 28.2 µM [inhibitor, partial curve, poor fit]. For `CCOC(=O)C1=C(CNCc2ccccc2Cl)NC(=O)NC1c1cccc([N+](=O)[O-])c1` (stereo not given), the “activity change, negative = inhibition” value was inactive: 3.21%. `Cc1ccc2c(c1)c1c(n2CC(O)CNC(CO)(CO)CO)CCCC1` (stereo not given) was tested, and the “activity change, negative = inhibition” value was inactive: 6.96%. In the case of `COc1ccccc1CNC(=O)CN1N=C(c2ccccc2)CCC1=O`, the Potency is reported as inconclusive: 100 µM [inhibitor, single point]. In the case of `NC(=O)COC(=O)c1cc(-c2ccco2)nc2ccccc12`, the Potency is reported as inconclusive: 35.5 µM [inhibitor, partial curve].
